# Source: PubChem BioAssay AID602313 (National Center for Advancing Translational Sciences (NCATS), 2012)
# Among all 390,000 compounds or so, about 760 (0.19%) were called active. The shares of active, inactive and inconclusive entries below differ from those in the screen. Calls come from the whole dose curve; as a rule, active = well fitted inhibition curve with a large enough effect; inconclusive = small, poorly fitted or top-dose-only effect; inactive = flat fitted curve, though single readings scatter. Potencies beside an inconclusive call are fits to weak or partial responses and may not hold up.
# Test: qHTS for Inhibitors of Vif-A3F Interactions: qHTS; note: nearly all actives have a fitted effect of over 65% in size
# Conditions: HeLa A3F-eYFP + Vif (tagged APOBEC3F with the HIV-1 protein that degrades it), YFP fluorescence increase; series mostly up to 46.1 µM
# Outline: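 Fluorescence increase (Ex 488/Em 500-530) after overnight compound treatment at 37 deg C flags inhibition of Vif-driven A3F-eYFP loss in stable HeLa A3F-eYFP/Vif cells seeded overnight beforehand.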
# Potency is the fitted concentration of half-maximal effect.
row,Structure (SMILES),Potency
1,Cc1ccc(CNc2cc(C)nc3nc(-c4ccc(C)cc4)nn23)cc1,"inconclusive: 12.6 µM [inhibitor, partial curve, poor fit]"
2,O=C(O)Cn1cc(/C=C2\C(=O)NC(=O)N(c3ccc(Br)cc3)C2=O)c2ccccc21,"inconclusive: 11.2 µM [inhibitor, partial curve, poor fit]"
3,CCN(CCNc1ccc([N+](=O)[O-])c2cccnc12)S(=O)(=O)c1ccccc1,"inconclusive: 14.1 µM [inhibitor, partial curve, poor fit]"
4,COc1ccc(C(O)P(=O)(Oc2ccccc2)Oc2ccccc2)cc1 (stereo not drawn),"inconclusive: 35.5 µM [inhibitor, single point]"
5,Fc1ccc(Cn2nnnc2CN2CCC(n3nnc4cc(C(F)(F)F)ccc43)CC2)cc1,"inconclusive: 31.6 µM [inhibitor, single point]"
6,CCc1ccc(N2C(=O)NC(=O)/C(=C/c3cccn3CCOc3ccc(C)cc3)C2=O)cc1,"inconclusive: 10 µM [inhibitor, partial curve, poor fit]"
7,CN1C2CCC1C(COC(=O)c1ccccc1)C(O)C2 (stereo not drawn),"inconclusive: 35.5 µM [inhibitor, single point]"
8,N#CC(C#N)=Cc1cccnc1,"inconclusive: 35.5 µM [inhibitor, single point]"
9,Nc1c(Br)cc2c3c(cccc13)-c1ccccc1-2,active: 11.2 µM
10,CCCCn1c(O)c(C(C)=NCc2ccco2)c(=O)[nH]c1=O,inactive
11,Fc1ccc(C(OCCN2CCN(CCCc3ccccc3)CC2)c2ccc(F)cc2)cc1,inactive
12,Cc1cc(C)cc(N2C(=O)NC(=O)/C(=C\c3cc(C)n(C)c3C)C2=O)c1,"inconclusive: 35.5 µM [inhibitor, single point]"
13,O=C1NC(=O)N(c2ccccc2F)C(=O)/C1=C/c1ccc(Sc2nc3ccccc3[nH]2)o1,active: 22.4 µM
14,CCOc1ccc(NC2=NCCCS2)cc1,"inconclusive: 22.4 µM [inhibitor, single point]"
15,O=C1NC(=O)N(c2ccc3c(c2)OCO3)C(=O)/C1=C/c1ccc(N2CCCC2)o1,"inconclusive: 20 µM [inhibitor, partial curve, poor fit]"
16,CCC(C)N1C(=O)/C(=C/c2ccc3c(c2)CCN3CCCCl)C(=O)NC1=S (stereo not drawn),"inconclusive: 7.08 µM [inhibitor, partial curve, poor fit]"
17,Nc1c(C(=O)NC2CCCC2)c2nc3ccccc3nc2n1CC1CCCO1 (stereo not drawn),"inconclusive: 25.1 µM [inhibitor, single point]"
18,CN1C(=O)/C(=C\c2ccc(N3CCCCCC3)cc2)C(=O)NC1=S,"inconclusive: 22.4 µM [inhibitor, single point]"
19,Cc1cc(C)c(Cn2c(C(=O)O)c(C=O)c3ccccc32)c(C)c1,"inconclusive: 10 µM [inhibitor, partial curve, poor fit]"
20,O=C1NC(=O)N(c2ccccc2)C(=O)/C1=C/c1ccoc1,"inconclusive: 35.5 µM [inhibitor, single point]"
21,COC(=O)[C@@]1(C#N)[C@@H]2C=CC(C(C)=O)=CN2[C@@H](C(N)=O)[C@@H]1c1ccc(F)cc1,"inconclusive: 11.2 µM [inhibitor, partial curve]"

row,Structure (SMILES),Potency
1,Cc1ccc(NC(=O)Cn2c(=O)oc3cc(S(=O)(=O)N4CCCCCC4)ccc32)cc1Cl,"inconclusive: 12.6 µM [inhibitor, single point]"
2,CN(C)c1ccc(C=Cc2ccnc3c(O)cccc23)cc1,"inconclusive: 22.4 µM [inhibitor, single point]"
3,COc1ccc2c3c1OC1C(O)C=CC4C(C2)[N+](C)(C)CCC341 (stereo not drawn),inactive
4,CCn1ccnc1CN1CCCC(C(=O)c2cc(Cl)ccc2OC)C1 (stereo not drawn),"inconclusive: 31.6 µM [inhibitor, single point]"
5,Cn1c(O)c(C=Nc2ccccc2)c(=O)n(C)c1=O,"inconclusive: 4.47 µM [inhibitor, single point]"
6,O=C1CN=C(c2ccc(Br)cc2)c2c(sc3c2CCCC3)N1CCN1CCCCC1,"inconclusive: 35.5 µM [inhibitor, single point]"
7,CCOc1ccc(N2C(=O)NC(=O)/C(=C\c3ccc(N4CCCCC4)o3)C2=O)cc1,"inconclusive: 20 µM [inhibitor, partial curve, poor fit]"
8,O=C(c1cc(-c2ccc(Cl)cc2)n[nH]1)N1CCN(S(=O)(=O)c2ccc(Br)s2)CC1,"inconclusive: 11.2 µM [inhibitor, partial curve, poor fit]"
9,O=[N+]([O-])NC1=NCN(Cc2ccco2)CN1Cc1ccco1,inactive
10,CC1CN(CC(=O)c2ccccc2Cl)CC(C)O1 (stereo not drawn),"inconclusive: 31.6 µM [inhibitor, single point]"
11,CCN(CC)c1ccc(/C=C/[N+](=O)[O-])cc1,active: 25.1 µM
12,CCOC(=O)c1c(/N=C/c2c(O)n(-c3ccc(F)cc3)c(=S)[nH]c2=O)sc2c1CCCC2,"inconclusive: 15.8 µM [inhibitor, partial curve, poor fit]"
13,Cc1c(N=Nc2c(O)n(Cc3ccccc3)c(=O)[nH]c2=O)c(=O)n(-c2ccccc2)n1C,"inconclusive: 35.5 µM [inhibitor, single point]"
14,CS(=O)(=O)CCN1CC2CCCC(C2)C1,"inconclusive: 10 µM [inhibitor, single point]"
15,COc1cccc(N2C(=O)NC(=O)/C(=C/c3ccc([N+](=O)[O-])s3)C2=O)c1,"inconclusive: 3.16 µM [inhibitor, partial curve, poor fit]"
16,CC/C(=N\NC(=O)c1ccccc1O)c1c(O)n(Cc2ccccc2)c(=O)[nH]c1=O,active: 11.2 µM
17,CCOc1ccc(-n2c(O)c(/C=C3\C=Nc4ccccc43)c(=O)[nH]c2=O)cc1,"inconclusive: 31.6 µM [inhibitor, single point]"
18,O=C1CC(N2CCC(n3c(=O)[nH]c4ccccc43)CC2)C(=O)N1c1ccc(F)cc1 (stereo not drawn),inactive
19,O=C1CCN(C(=O)CCCn2c(=O)oc3ccccc32)CC1,inactive
20,CCCCn1c(=O)c(C=Nc2cccnc2Cl)c(O)n(CCCCl)c1=O,"inconclusive: 22.4 µM [inhibitor, single point]"
21,Cc1ccc(-c2nn3c(C)nnc3c3ccccc23)cc1S(=O)(=O)NCCO,"inconclusive: 25.1 µM [inhibitor, single point]"

# 3 of these compounds, set out differently.
row	Structure (SMILES)	Potency
12	CCOC(=O)c1c(/N=C/c2c(O)n(-c3ccc(F)cc3)c(=S)[nH]c2=O)sc2c1CCCC2	inconclusive: 15.8 µM [inhibitor, partial curve, poor fit]
14	CS(=O)(=O)CCN1CC2CCCC(C2)C1	inconclusive: 10 µM [inhibitor, single point]
21	Cc1ccc(-c2nn3c(C)nnc3c3ccccc23)cc1S(=O)(=O)NCCO	inconclusive: 25.1 µM [inhibitor, single point]

# Additional records follow.

row,Structure (SMILES),Potency
1,Cc1nccc2c1[nH]c1ccccc12,inactive
2,O=c1[nH]c(=O)n(Cc2ccccc2)c(O)c1/C=N/Nc1c(F)c(F)c(F)c(F)c1F,"inconclusive: 6.31 µM [inhibitor, single point]"
3,C=CC1CN2CCC1CC2C(OC(C)=O)c1ccnc2ccc(OC)cc12 (stereo not drawn),"inconclusive: 0.562 µM [inhibitor, full curve, poor fit]"
4,COc1cc(CC2C(=O)N(C)C(=O)N(C)C2=O)ccc1OCc1ccccc1,inactive
5,CCCCCn1c(=O)c(C(=O)Nc2nc(CC(=O)OCC)cs2)c(O)c2ccccc21,"inconclusive: 35.5 µM [inhibitor, single point]"
6,O=c1[nH]c(=S)n(Cc2ccc(F)cc2)c(O)c1C=NCc1ccc2c(c1)OCO2,"inconclusive: 3.98 µM [inhibitor, single point]"
7,CN(C)C(=O)Oc1ccc(Br)c2ccccc12,"inconclusive: 3.55 µM [inhibitor, single point]"
8,C=CCN1C(=O)/C(=C/c2cc(C)n(-c3ccccn3)c2C)C(=O)NC1=S,"inconclusive: 25.1 µM [inhibitor, single point]"
9,N#Cc1c(/N=C/C2C(=O)NC(=S)NC2=O)sc2c1CCCC2,"inconclusive: 35.5 µM [inhibitor, single point]"
10,O=c1[nH]c(=O)n(Cc2ccccc2)c(O)c1/C=N/NCCO,"inconclusive: 8.91 µM [inhibitor, partial curve, poor fit]"
11,O=[N+]([O-])c1ccc(N2CCOCC2)c2c1no[n+]2[O-],"inconclusive: 8.91 µM [inhibitor, partial curve]"
12,Cc1ccccc1-n1c(/C=C/c2ccc(N(C)C)cc2)nc2ccccc2c1=O,"inconclusive: 3.16 µM [inhibitor, partial curve, poor fit]"
13,O=C1Nc2cc(C(=O)N3CCC4(CC3)OCCO4)ccc2S/C1=C\c1ccccc1,"inconclusive: 31.6 µM [inhibitor, single point]"
14,Cc1cccc(CCNCc2cc3cccc(C)c3[nH]c2=O)c1,inactive
15,C=CCn1c(O)c(C=Nc2ccc(N(CC)CC)cc2)c(=O)[nH]c1=O,"inconclusive: 35.5 µM [inhibitor, single point]"
16,COc1ccc(OC(=O)N2C/C(=C/c3ccccc3)C(=O)/C(=C\c3ccccc3)C2)cc1,"inconclusive: 7.08 µM [inhibitor, full curve]"
17,C=C1C(=O)O[C@@H]2C[C@@H](C)[C@H]3C=CC(=O)[C@]3(O)C[C@@H]12,"inconclusive: 5.01 µM [inhibitor, single point]"
18,Cc1c(N=Cc2c(O)n(Cc3ccccc3)c(=O)[nH]c2=O)c(=O)n(-c2ccccc2)n1C,inactive
19,CC1(C)CC(=O)C2=C(C1)OC(N)=C([N+](=O)[O-])C2c1ccc(C#N)s1 (stereo not drawn),"inconclusive: 15.8 µM [inhibitor, single point]"
20,CCOc1ccccc1Oc1coc2cc(OC(=O)N(C)C)ccc2c1=O,inactive
21,O=c1[nH]c(=O)n(C2CCCCC2)c(O)c1/C=C/C=Nc1ccccc1,"inconclusive: 4.47 µM [inhibitor, partial curve, poor fit]"
